A weaker result is weaker than the reference pair of the same experiment. Tags and fusion partners may be left off the protein sequences shown.
Biological target: T1, Ssd1 ΔN338 (Saccharomyces cerevisiae (S288C/BY4741 background)) (UniProt P24276)
T1 sequence (looked up): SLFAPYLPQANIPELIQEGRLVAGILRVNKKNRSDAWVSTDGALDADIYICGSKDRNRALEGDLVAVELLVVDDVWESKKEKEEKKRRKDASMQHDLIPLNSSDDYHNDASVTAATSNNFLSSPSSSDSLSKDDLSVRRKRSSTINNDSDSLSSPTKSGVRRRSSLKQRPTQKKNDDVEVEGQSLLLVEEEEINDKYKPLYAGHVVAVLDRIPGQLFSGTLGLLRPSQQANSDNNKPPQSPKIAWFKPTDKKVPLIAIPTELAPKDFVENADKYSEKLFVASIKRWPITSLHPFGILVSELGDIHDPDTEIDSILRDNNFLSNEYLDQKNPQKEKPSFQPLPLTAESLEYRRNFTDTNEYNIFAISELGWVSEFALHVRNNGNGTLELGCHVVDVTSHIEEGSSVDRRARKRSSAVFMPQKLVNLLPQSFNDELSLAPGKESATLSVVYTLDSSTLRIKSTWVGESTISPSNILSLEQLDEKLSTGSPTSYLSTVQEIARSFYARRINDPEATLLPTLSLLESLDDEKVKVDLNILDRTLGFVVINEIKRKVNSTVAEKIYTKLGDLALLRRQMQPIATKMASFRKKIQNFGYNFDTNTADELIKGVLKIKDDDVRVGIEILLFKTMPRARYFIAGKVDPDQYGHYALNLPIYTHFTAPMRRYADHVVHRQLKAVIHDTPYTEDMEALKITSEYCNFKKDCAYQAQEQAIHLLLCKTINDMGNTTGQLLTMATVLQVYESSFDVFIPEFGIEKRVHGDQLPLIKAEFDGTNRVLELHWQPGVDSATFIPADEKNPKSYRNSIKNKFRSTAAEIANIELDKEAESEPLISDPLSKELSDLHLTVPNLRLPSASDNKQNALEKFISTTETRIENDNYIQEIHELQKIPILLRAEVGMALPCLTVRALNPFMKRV
Test: EMSA
Settings: 5 mM Mg acetate, barely detectable, EMSA: 0.5 uM RNA, 20 mM HEPES pH 7.5, 150 mM K acetate, 1 h on ice, gel at 4 C, recombinant protein, residues 339-1250, protein details: His tag cleaved with 3C protease, label: 5'-DY681 (EMSA), 5'-Cy3 (anisotropy)

AUUUUCACUCCUUUAA [SEE-15mer]
binding result: binds more weakly
